This is an account of results in US20230038996A1.

Protein sequences, listed by entry. Tags and fused reporters are not part of them.
UniProt P01106: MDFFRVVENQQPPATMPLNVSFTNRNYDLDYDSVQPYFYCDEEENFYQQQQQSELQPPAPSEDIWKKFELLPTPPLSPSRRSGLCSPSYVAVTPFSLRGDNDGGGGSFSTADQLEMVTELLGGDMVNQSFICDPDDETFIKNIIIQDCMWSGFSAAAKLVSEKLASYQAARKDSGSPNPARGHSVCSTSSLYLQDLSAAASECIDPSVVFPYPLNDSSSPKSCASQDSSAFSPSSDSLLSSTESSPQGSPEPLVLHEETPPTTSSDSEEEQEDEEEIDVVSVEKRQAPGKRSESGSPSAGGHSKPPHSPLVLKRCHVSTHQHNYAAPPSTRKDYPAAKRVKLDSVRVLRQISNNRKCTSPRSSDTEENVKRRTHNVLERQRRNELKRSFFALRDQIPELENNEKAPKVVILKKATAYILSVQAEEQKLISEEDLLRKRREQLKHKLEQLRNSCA

These are yes or no findings as the source states them, for the method shown. In cells and extracts the contact can be indirect. Some results given as binding are weak or reduced against the parent protein; the word gives no strength.

The target in the experiment is MYC (UniProt P01106). The experiment can be described thus: co-immunoprecipitation from glioma stem cell lysates (anti-EYA1 pull-down, immunoblot for c-Myc). (In general: A western blot detects proteins with antibodies after separation by electrophoresis.)

B1: EYA Transcriptional Coactivator and Phosphatase 1 (EYA1) (enzyme, human, UniProt Q99502 1-592, looked up)
chain: MEMQDLTSPHSRLSGSSESPSGPKLGNSHINSNSMTPNGTEVKTEPMSSSETASTTADGSLNNFSGSAIGSSSFSPRPTHQFSPPQIYPSNRPYPHILPTPSSQTMAAYGQTQFTTGMQQATAYATYPQPGQPYGISSYGALWAGIKTEGGLSQSQSPGQTGFLSYGTSFSTPQPGQAPYSYQMQGSSFTTSSGIYTGNNSLTNSSGFNSSQQDYPSYPSFGQGQYAQYYNSSPYPAHYMTSSNTSPTTPSTNATYQLQEPPSGITSQAVTDPTAEYSTIHSPSTPIKDSDSDRLRRGSDGKSRGRGRRNNNPSPPPDSDLERVFIWDLDETIIVFHSLLTGSYANRYGRDPPTSVSLGLRMEEMIFNLADTHLFFNDLEECDQVHIDDVSSDDNGQDLSTYNFGTDGFPAAATSANLCLATGVRGGVDWMRKLAFRYRRVKEIYNTYKNNVGGLLGPAKREAWLQLRAEIEALTDSWLTLALKALSLIHSRTNCVNILVTTTQLIPALAKVLLYGLGIVFPIENIYSATKIGKESCFERIIQRFGRKVVYVVIGDGVEEEQGAKKHAMPFWRISSHSDLMALHHALELEYL
On to B1, for which the binding entry was “binds”.
